Some of the results follow.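 The calls were made as follows: active = probability of classifying as wild-type above 0.505; inactive = 0.505 or below.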 Many values rest on one well or one pass, so single values are uncertain.
tested on: SORL1-/- neural progenitor cells (hiPSC WTSIi004-B derived); experiment: probability of classification as wild-type phenotype (neural network, relative to DMSO-treated WT vs SORL1-/- controls) (fraction); higher = more similar to wild-type morphology (phenotypic rescue); settings: 100 nM; SORL1-/- sub-clone: WB8; 24 h

| Compound | probability |
| --- | --- |
| CCOc1cc2ncc(C#N)c(Nc3ccc(OCc4ccccn4)c(Cl)c3)c2cc1NC(=O)/C=C/CN(C)C [Neratinib] | active: 0.571 |
| N[C@@H]1CCCC[C@H]1N.O=C1[O][Pt][O]C1=O [Oxaliplatin] | active: 0.939 |
| CC(=O)O[C@@]12CO[C@@H]1C[C@H](O)[C@@]1(C)C(=O)[C@H](O)C3=C(C)[C@@H](OC(=O)[C@H](O)[C@@H](NC(=O)OC(C)(C)C)c4ccccc4)C[C@@](O)([C@@H](OC(=O)c4ccccc4)[C@H]21)C3(C)C.O.O.O [Docetaxel trihydrate] | active: 0.711 |
| CN(C)N=Nc1nc[nH]c1C(N)=O [Dacarbazine] | active: 0.842 |
| C/C(=C\c1csc(C)n1)[C@@H]1C[C@@H]2O[C@]2(C)CCC[C@H](C)[C@H](O)[C@@H](C)C(=O)C(C)(C)[C@@H](O)CC(=O)N1 [Ixabepilone] | active: 0.64 |
| CN(C)C/C=C/C(=O)Nc1cc2c(Nc3ccc(F)c(Cl)c3)ncnc2cc1O[C@H]1CCOC1.O=C(O)/C=C\C(=O)O.O=C(O)/C=C\C(=O)O [Afatinib Dimaleate] | active: 1 |
| CCN(CC)CCNC(=O)c1c(C)[nH]c(/C=C2\C(=O)Nc3ccc(F)cc32)c1C.O=C(O)C[C@H](O)C(=O)O [Sunitinib Malate] | active: 0.984 |

2 of these compounds in a different format.
Compound	probability
CN(C)C/C=C/C(=O)Nc1cc2c(Nc3ccc(F)c(Cl)c3)ncnc2cc1O[C@H]1CCOC1.O=C(O)/C=C\C(=O)O.O=C(O)/C=C\C(=O)O [Afatinib Dimaleate]	active: 1
CCN(CC)CCNC(=O)c1c(C)[nH]c(/C=C2\C(=O)Nc3ccc(F)cc32)c1C.O=C(O)C[C@H](O)C(=O)O [Sunitinib Malate]	active: 0.984

same assay, conditions: 100 nM; SORL1-/- sub-clone: XE10; 24 h

| Compound | probability |
| --- | --- |
| CC(=O)O[C@@]12CO[C@@H]1C[C@H](O)[C@@]1(C)C(=O)[C@H](O)C3=C(C)[C@@H](OC(=O)[C@H](O)[C@@H](NC(=O)OC(C)(C)C)c4ccccc4)C[C@@](O)([C@@H](OC(=O)c4ccccc4)[C@H]21)C3(C)C [Docetaxel] | active: 0.578 |
| Nc1cccc2c1C(=O)N(C1CCC(=O)NC1=O)C2=O (stereo not drawn) [Pomalidomide] | active: 0.837 |
| Cc1cc2c(cc1S(N)(=O)=O)S(=O)(=O)CCC2 [Meticrane] | active: 0.778 |
| c1cc(CN2CCCNCCNCCCNCC2)ccc1CN1CCCNCCNCCCNCC1 [Plerixafor] | active: 0.537 |
| Cc1cc(Nc2ncc(Cl)c(Nc3ccccc3S(=O)(=O)C(C)C)n2)c(OC(C)C)cc1C1CCNCC1 | active: 0.514 |
| C=CC(=O)Nc1cc(Nc2nccc(-c3cn(C)c4ccccc34)n2)c(OC)cc1N(C)CCN(C)C [Osimertinib] | active: 0.997 |
